Reference: patent US20200354462A1
These are yes or no findings as the source states them, for the method shown. Some binding calls cover weakened binding; strength is not graded here.

Experiments:
[1] = target: T1, human GnRH receptor expressed on the surface of OC-3-VGH cancer cells (human) (UniProt P30968); experiment: competitive cell ELISA on OC-3-VGH cells; competitor mGHR106
T1 sequence (looked up): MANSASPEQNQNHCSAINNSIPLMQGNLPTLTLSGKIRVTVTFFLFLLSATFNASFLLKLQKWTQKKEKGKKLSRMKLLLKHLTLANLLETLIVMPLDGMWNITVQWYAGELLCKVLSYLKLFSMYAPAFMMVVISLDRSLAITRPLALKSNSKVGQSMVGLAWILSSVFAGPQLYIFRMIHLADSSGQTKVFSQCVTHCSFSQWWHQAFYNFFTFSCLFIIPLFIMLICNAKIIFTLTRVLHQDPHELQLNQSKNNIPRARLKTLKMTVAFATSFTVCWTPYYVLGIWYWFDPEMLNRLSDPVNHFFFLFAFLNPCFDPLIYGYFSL

[2] = target: T2, N1-29 synthetic peptide of the N-terminal extracellular domain of the monkey GnRH receptor (monkey); experiment: peptide competition (1 µg/mL peptide) of antibody binding to OC-3-VGH cells (FIG. 1B)
T2 sequence (peptide): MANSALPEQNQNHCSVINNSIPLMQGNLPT

B1: humanized GHR-106 monoclonal antibody (antibody, human IgG4 S228P, kappa, V domains shown)
VH: QVQLQESGPGLVKPSETLSLTCTVSGFSLSRYSVHWIRQPPGKGLEWIGMIWGGGSTDYNPSLKSRVTISKDNSKSQVFLKMSSVTAADTAMYYCARGNDGYYSFAYWGQGTLVTVSS
VL: DIVMTQSPDSLAVSLGERATINCKSSQSLLNSRTRKNYLAWYQQKPGQSPKLLIYWASTRESGVPDRFSGSGSGTDFTLTISSLQAEDVAVYYCKQSYNLYTFGQGTKLEIKR
B1 was tested, and the binding [1] was “binds” and the binding [2] was “binds”.
